Test results as given in publication PMC10599731.
Results are given in words; binding and its absence hold for the method and conditions named. In cells and extracts the contact can be indirect.

Sequences of proteins named here, by UniProt entry; tags and fusion partners are left off.
UniProt Q9WTL8: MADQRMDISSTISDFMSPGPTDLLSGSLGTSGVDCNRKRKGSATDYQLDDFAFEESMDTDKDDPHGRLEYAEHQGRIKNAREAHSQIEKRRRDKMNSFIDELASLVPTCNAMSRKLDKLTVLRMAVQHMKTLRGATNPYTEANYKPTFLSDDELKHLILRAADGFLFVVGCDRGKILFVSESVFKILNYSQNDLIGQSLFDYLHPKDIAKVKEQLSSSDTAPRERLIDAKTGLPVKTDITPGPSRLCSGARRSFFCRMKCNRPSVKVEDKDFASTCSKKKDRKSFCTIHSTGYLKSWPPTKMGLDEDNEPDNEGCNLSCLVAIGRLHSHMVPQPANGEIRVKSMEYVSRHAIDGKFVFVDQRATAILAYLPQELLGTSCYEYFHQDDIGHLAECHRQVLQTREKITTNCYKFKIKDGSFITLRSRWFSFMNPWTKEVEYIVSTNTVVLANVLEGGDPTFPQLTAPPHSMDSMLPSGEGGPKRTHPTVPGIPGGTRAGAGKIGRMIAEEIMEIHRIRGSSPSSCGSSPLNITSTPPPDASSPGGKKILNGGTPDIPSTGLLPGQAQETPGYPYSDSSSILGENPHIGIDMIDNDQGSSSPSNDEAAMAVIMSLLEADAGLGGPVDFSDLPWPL
UniProt P05627: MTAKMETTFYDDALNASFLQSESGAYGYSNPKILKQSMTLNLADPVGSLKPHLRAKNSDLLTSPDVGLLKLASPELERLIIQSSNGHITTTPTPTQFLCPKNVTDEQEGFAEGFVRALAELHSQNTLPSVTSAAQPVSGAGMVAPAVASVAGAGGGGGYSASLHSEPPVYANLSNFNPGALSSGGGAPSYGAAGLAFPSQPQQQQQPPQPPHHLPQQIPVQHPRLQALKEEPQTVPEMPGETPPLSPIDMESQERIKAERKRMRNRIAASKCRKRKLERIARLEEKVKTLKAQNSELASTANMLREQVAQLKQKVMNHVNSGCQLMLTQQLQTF

Target: BMAL1 (mouse (endogenous in mouse adult fibroblasts)) (UniProt Q9WTL8)
Experiment: co-IP; BMAL1 immunoprecipitated (Dynabeads Protein G kit) from total protein extracts of control and senescent mouse adult fibroblasts collected 12 hours post-synchronization; half of the samples DNase digested (TURBO DNase, 6 U); flow through and elution blotted for c-Jun

Question: For c-Jun (from UniProt P05627 1-334), which binding is on record?
Answer: no binding
